The structures given here were assigned with low confidence; some may be wrong.
Molecular target: IDO2 (Homo sapiens (Human), UniProt Q6ZQW0)
Assay: Cellular IDO2 assay, doxycycline and 5-methoxy-L-tryptophan medium, colorimetric
Format: cell-based
Details: read-out: IDO2 IC50: Average IC50; cellular level, 72 h incubation, signal at 480 nm

Sequences of proteins named here, by UniProt entry; tags and fusion partners are left off.
UniProt Q6ZQW0, whole entry: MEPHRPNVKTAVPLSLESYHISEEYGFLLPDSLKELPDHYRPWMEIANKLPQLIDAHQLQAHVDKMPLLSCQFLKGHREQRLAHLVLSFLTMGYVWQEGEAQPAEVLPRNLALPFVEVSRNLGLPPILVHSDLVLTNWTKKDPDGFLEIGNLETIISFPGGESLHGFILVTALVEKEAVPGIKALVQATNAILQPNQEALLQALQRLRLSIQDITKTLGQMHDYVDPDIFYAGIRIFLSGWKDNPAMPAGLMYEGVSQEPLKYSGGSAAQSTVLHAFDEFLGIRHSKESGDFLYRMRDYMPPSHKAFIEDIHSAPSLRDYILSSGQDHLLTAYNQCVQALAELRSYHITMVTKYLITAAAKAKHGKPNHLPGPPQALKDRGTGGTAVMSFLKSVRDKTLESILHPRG

Structure (SMILES): COc1ccc2nc3n(c(=O)c2c1)-c1ccc([N+](=O)[O-])cc1C3=O
- IC50: < 50 nM

Structure (SMILES): O=C1c2cc([N+](=O)[O-])ccc2-n2c1nc1cccc(Cl)c1c2=O
- IC50: < 50 nM
